Data on 1 substance can be found in article PMC519002.

By UniProt entry, the sequences of proteins in these tests, tags left out. Where a name states a change or a piece, a line headed by the entry shows the natural chain unless it says otherwise.
UniProt P40075: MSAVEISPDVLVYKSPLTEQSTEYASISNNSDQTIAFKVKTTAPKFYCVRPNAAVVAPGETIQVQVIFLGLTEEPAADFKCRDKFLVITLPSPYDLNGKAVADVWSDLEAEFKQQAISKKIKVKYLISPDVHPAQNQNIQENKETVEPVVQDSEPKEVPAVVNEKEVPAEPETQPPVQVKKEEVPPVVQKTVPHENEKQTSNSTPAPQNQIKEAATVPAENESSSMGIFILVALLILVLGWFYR

The test has as its target T1, myc-tagged Opi1 (S. cerevisiae (endogenous locus, strains derived from CRY1)) (UniProt P21957).
T1 sequence: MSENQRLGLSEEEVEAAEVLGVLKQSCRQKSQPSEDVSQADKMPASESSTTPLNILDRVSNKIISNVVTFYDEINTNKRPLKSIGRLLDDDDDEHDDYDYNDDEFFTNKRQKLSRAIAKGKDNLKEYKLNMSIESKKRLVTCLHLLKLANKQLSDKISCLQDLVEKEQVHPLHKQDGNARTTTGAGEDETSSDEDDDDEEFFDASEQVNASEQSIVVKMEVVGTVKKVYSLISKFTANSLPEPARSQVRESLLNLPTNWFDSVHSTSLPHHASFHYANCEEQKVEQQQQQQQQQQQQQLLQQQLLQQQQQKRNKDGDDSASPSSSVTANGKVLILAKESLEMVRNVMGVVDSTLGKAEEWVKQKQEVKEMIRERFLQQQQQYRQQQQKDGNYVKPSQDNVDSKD
Put plainly: affinity purification with mass spectrometry; microsomal fraction solubilized with 3% Triton X-100 in IP buffer; anti-myc agarose 4 h at 4 °C, ten washes; SDS-PAGE, colloidal blue stain, band excised and identified by MALDI mass spectrometry; untagged strain as control.

These are yes or no findings as the source states them, for the method shown. Binding seen in cells or lysates may run through a third protein. Here binding means that the protein was enriched with, or labelled near, the bait; the list need not be complete. Sequences can lack the tags named with a protein.

As for Scs2 (from UniProt P40075), the binding result is reported as “binds”.
